The target in this experiment is dopamine transporter (DAT) (rat (endogenous in striatal synaptosomes)) (UniProt P23977). In words: co-IP; Dynabeads with D2 receptor antibody (AB5084P) or DAT antibody (SC1433), 12 h at 4 °C; striatal synaptosomal fractions (200 μg protein in 100 μL RIPA buffer), 12 h at 4 °C; western blot with DAT or D2 receptor antibody; rats given saline, single METH (6 mg/kg i.v., killed at 30 min) or binge METH (4 × 10 mg/kg i.p., killed at 1 h).

By UniProt entry, the sequences of proteins in these tests, tags left out. Where a name states a change or a piece, a line headed by the entry shows the natural chain unless it says otherwise. Chains listed by the source or under a name are the forms on record and can include a tag or linker.
UniProt P23977: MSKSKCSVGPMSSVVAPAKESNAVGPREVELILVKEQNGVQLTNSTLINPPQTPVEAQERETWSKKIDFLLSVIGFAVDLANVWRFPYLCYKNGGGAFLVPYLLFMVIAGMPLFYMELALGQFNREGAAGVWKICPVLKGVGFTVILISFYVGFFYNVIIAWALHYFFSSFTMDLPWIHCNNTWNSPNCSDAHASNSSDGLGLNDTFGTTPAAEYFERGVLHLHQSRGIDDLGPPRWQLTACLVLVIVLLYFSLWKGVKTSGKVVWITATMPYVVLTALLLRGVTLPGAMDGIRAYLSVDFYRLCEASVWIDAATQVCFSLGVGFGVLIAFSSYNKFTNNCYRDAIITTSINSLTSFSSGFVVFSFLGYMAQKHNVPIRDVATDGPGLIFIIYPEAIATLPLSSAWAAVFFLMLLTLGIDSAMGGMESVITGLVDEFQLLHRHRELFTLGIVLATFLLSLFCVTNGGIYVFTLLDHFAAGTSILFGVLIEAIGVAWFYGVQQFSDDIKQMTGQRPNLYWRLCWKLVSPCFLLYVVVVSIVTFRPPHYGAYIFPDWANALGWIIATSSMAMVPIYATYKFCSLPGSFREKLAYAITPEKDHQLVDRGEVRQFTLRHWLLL
dopamine D2short (D2S) receptor, presynaptic D2 autoreceptor (P61169-2, form named): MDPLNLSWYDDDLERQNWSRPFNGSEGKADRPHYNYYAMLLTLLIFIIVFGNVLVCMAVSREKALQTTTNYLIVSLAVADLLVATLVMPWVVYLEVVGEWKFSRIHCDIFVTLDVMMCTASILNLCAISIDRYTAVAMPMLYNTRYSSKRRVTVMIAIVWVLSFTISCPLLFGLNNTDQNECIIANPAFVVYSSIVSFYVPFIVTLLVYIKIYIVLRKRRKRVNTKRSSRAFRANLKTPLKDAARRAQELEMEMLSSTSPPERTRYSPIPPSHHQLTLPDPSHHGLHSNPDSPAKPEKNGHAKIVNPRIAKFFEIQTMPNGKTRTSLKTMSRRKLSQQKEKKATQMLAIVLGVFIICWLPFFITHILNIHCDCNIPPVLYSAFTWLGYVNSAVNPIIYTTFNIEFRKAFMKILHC

No constants are given. Whether binding was seen depends on the method and setting. Binding seen in cells or lysates may run through a third protein. Some binding calls cover weakened binding; strength is not graded here.

Turning to “dopamine D2short (D2S) receptor, presynaptic D2 autoreceptor (from UniProt P61169-2 1-415)”, the binding result is recorded as “binds”.

The values above are taken from PMC4013602.
